These are yes or no findings as the source states them, for the method shown. Some entries that bind do so weakly or less than the wild type.
Experiments:
[1] = biological target: rhesus CD40 (rhesus macaque) (UniProt F6SNI1); test: flow cytometry, rhesus PBMCs cultured with MAB273 in vitro, competition with the CD40 staining antibody
[2] = biological target: rhesus CD40 (rhesus macaque) (UniProt F6SNI1); test: flow cytometry of rhesus PBMCs after administration in vivo; loss of binding of a competing fluorescent antibody
[3] = biological target: rhesus CD40 (rhesus macaque) (UniProt F6SNI1); test: summary of the in vivo rhesus study (flow cytometry)

The chains behind the UniProt entries cited, without tags or fusion partners. Where a name states a change or a piece, a line headed by the entry shows the natural chain unless it says otherwise. A line that says so, or that is headed by a name, gives the form on record, which may keep a tag or linker.
rhesus CD40 (F6SNI1, form named): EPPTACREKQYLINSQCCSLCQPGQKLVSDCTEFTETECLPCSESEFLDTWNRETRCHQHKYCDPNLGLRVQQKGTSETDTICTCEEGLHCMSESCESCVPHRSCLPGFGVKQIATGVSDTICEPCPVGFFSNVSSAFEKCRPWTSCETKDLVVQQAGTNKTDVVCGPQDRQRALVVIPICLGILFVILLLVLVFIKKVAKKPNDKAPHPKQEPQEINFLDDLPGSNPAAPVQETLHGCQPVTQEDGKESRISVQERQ

binding [1]: binds
binding [2]: binds
binding [3]: binds
B1: MAB273 (antibody, V domains shown)
VH: EVQLEESGGGLVQPGGSLRLSCAASGFDFSSNTMCWVRQAPGKGLEWVACIYAGSSGSTYYASWAKGRFTISKDISKTTLYLQMNSLRAEDTATYFCARGLSRFSLWGQGTLVTVSS
VL: DIVMTQSPSSLSASVGDRVTITCQASQSISNYLAWYQQKPGQAPKLLIYDASKLASGVPSRFSGSGSGTDFTLTISSLQPEDFATYYCQGGDYYGSSYVVAFGGGTKVVIK
